Where a SMILES comes first, the peptide text is derived from it. [ ]: non-standard residue; d: D form.
Assay: NMR proton selective relaxation rate measurements of DAL (affinity studies)
Type: binding
Conditions: 25 °C, D2O
[1] = 600 MHz, DAL 0.68 mM, 1:1 MCD/DAL

| Compound | Bi-selective relaxation rate R1^bs of H1^Tyr of DAL (600 MHz, DAL 0.68 mM) | Bi-selective relaxation rate R1^bs of H2^Tyr of DAL (600 MHz, DAL 0.68 mM) | Bi-selective relaxation rate R1^bs of H3^Phe of DAL (600 MHz, DAL 0.68 mM) | Bi-selective relaxation rate R1^bs of H4^Phe of DAL (600 MHz, DAL 0.68 mM) | Mono-selective relaxation rate R1^ms of H1^Tyr of DAL [1] | Mono-selective relaxation rate R1^ms of H2^Tyr of DAL [1] | Mono-selective relaxation rate R1^ms of H3^Phe of DAL [1] | Mono-selective relaxation rate R1^ms of H4^Phe of DAL [1] | Mono-selective relaxation rate R1^ms of H4a^Leu of DAL [1] | Mono-selective relaxation rate R1^ms of H4b^Leu of DAL [1] | Mono-selective relaxation rate R1^ms of H5^Phe of DAL [1] | bound molar fraction of DAL (equimolar MCD, 0.68 mM, from Ka) |
| --- | --- | --- | --- | --- | --- | --- | --- | --- | --- | --- | --- | --- |
| CC(C)C[C@H](NC(=O)[C@H](Cc1ccccc1)NC(=O)CNC(=O)[C@@H](C)NC(=O)[C@@H](N)Cc1ccc(O)cc1)C(=O)N[C@@H](CCCNC(=N)N)C(=O)O [DAL, (D-Ala2)-Leu-Enkephalin-Arg] (H-Y[dA]GFLR-OH) | 0.39 s⁻¹ | 0.61 s⁻¹ | 0.63 s⁻¹ | 0.55 s⁻¹ | 0.36 s⁻¹ | 0.58 s⁻¹ | 0.62 s⁻¹ | 0.54 s⁻¹ | 1.69 s⁻¹ | 1.59 s⁻¹ | 0.66 s⁻¹ | – |
| 2-methyl-β-cyclodextrin [MCD] | – | – | – | – | – | – | – | – | – | – | – | 7% |

From paper PMC7077720, “Improvement of Peptide Affinity and Stability by Complexing to Cyclodextrin-Grafted Ammonium Chitosan” (Polymers, 2020)
